Results as given in PMC7057099.
Positions count from the first letter of the chain named. In names and notes the source's numbering stands. No constants are given. Whether binding was seen depends on the method and setting. In cells and extracts the contact can be indirect. Some entries that bind do so weakly or less than the wild type. Sequences can lack the tags named with a protein.

The chains behind the UniProt entries cited, without tags or fusion partners. Where a name states a change or a piece, a line headed by the entry shows the natural chain unless it says otherwise.
UniProt P43694: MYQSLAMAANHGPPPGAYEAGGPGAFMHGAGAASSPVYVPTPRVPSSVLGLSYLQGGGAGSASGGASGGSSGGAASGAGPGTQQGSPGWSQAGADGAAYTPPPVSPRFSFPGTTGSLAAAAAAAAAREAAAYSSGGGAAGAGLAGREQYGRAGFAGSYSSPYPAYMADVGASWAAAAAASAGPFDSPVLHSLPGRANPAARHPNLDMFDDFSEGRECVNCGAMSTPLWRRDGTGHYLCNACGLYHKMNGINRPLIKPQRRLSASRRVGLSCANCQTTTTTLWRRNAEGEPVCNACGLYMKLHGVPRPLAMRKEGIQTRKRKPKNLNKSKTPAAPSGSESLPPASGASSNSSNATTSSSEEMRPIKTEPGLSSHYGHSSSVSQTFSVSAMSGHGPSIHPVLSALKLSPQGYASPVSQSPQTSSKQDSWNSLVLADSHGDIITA

Key:
[1] = target: T1, Friend of GATA 2 protein (FOG2, ZFPM2), wild-type, Myc-DDK-tagged (human) (UniProt Q8WW38); experiment: co-IP; HEK293-T cells co-transfected with GATA4-HA (wild-type or variant) and ZFPM2-Myc-DDK; Pierce IP lysis buffer; IP with rabbit anti-FLAG overnight at 4°C, protein A/G plus agarose, PBS washes; Western blot of the IP with anti-GATA4
T1 sequence: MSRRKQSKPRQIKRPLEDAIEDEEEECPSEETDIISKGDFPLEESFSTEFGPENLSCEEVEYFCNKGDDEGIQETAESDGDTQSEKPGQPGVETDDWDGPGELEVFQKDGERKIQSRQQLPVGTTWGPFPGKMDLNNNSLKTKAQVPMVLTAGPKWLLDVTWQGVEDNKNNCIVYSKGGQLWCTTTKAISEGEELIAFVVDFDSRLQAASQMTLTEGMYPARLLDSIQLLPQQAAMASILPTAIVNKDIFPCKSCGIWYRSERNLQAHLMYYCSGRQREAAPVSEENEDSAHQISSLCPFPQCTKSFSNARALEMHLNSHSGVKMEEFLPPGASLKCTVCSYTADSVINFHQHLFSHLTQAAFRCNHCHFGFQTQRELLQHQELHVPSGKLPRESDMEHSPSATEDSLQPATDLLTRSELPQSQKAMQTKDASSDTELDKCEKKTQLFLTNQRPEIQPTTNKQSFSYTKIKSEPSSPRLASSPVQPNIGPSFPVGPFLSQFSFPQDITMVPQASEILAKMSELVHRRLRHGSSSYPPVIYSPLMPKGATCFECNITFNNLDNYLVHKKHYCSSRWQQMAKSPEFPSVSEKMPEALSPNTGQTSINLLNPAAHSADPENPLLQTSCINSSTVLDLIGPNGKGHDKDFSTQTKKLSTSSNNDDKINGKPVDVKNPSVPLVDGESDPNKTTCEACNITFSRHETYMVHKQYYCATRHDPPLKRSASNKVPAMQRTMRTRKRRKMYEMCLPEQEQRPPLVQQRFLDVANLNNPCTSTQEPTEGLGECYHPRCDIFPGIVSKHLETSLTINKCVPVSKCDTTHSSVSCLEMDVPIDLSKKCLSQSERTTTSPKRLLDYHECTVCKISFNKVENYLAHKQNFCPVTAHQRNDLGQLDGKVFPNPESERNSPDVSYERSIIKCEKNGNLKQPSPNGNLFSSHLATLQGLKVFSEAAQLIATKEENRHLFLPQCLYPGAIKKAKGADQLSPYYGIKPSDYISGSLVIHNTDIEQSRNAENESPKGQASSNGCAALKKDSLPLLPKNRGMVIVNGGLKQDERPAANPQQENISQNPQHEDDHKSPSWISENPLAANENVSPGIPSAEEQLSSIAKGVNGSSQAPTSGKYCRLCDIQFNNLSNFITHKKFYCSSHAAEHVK

[2] = target: GATA-binding protein 4 (GATA4), wild-type, HA-tagged (human) (UniProt P43694); experiment: co-IP; HEK293-T cells co-transfected with wild-type GATA4-HA and ZFPM2-Myc-DDK (wild-type or variant); Pierce IP lysis buffer; IP with rabbit anti-HA overnight at 4°C, protein A/G plus agarose, PBS washes; Western blot of the IP with anti-ZFPM2

With “GATA4 p.P407Q variant, HA-tagged (from UniProt P43694-1 1-442)” as the molecule, how does the binding [1] read?
Its binding is “binds”.

How did the binding [1] turn out when “GATA4 p.A346V variant, HA-tagged (from UniProt P43694-1 1-442)” was run?
The binding was “binds”.

Which binding [1] does the source give for “GATA4 p.G221R variant, HA-tagged (from UniProt P43694-1 1-442)” here?
The binding was “binds weakly”.

With “GATA-binding protein 4 (GATA4), wild-type, HA-tagged (from UniProt P43694-1 1-442)” as the molecule, how does the binding [1] read?
Its binding is “binds”.

B1: ZFPM2 (FOG2) p.V538I variant, Myc-DDK-tagged (protein, UniProt Q8WW38-1 1-1151)
chain: T1 sequence with V538I
Which binding [2] does the source give for B1 here?
Its binding is “binds”.

B2: ZFPM2 (FOG2) p.E419K variant, Myc-DDK-tagged (protein, UniProt Q8WW38-1 1-1151)
chain: T1 sequence with E419K
B2 was tested. Which binding [2] did it give?
Its binding is “binds”.

B3: ZFPM2 (FOG2) p.D98N variant, Myc-DDK-tagged (protein, UniProt Q8WW38-1 1-1151)
chain: T1 sequence with D98N
How did the binding [2] turn out when B3 was run?
Its binding is “binds”.

B4: ZFPM2 (FOG2) p.S210T variant, Myc-DDK-tagged (protein, UniProt Q8WW38-1 1-1151)
chain: T1 sequence with S210T
Which binding [2] does the source give for B4 here?
Its binding is “binds”.

B5: ZFPM2 (FOG2) p.L335V variant, Myc-DDK-tagged (protein, UniProt Q8WW38-1 1-1151)
chain: T1 sequence with L335V
For B5, which binding [2] is on record?
Its binding is “binds”.

B6: ZFPM2 (FOG2) p.M544I variant, Myc-DDK-tagged (protein, UniProt Q8WW38-1 1-1151)
chain: T1 sequence with M544I
B6 was tested. Which binding [2] did it give?
Its binding is “binds”.

B7: ZFPM2 (FOG2) p.K590N variant, Myc-DDK-tagged (protein, UniProt Q8WW38-1 1-1151)
chain: T1 sequence with K590N
How did the binding [2] turn out when B7 was run?
Its binding is “binds”.

B8: ZFPM2 (FOG2) p.L607del variant, Myc-DDK-tagged (protein, UniProt Q8WW38-1 1-1151)
chain: MSRRKQSKPRQIKRPLEDAIEDEEEECPSEETDIISKGDFPLEESFSTEFGPENLSCEEVEYFCNKGDDEGIQETAESDGDTQSEKPGQPGVETDDWDGPGELEVFQKDGERKIQSRQQLPVGTTWGPFPGKMDLNNNSLKTKAQVPMVLTAGPKWLLDVTWQGVEDNKNNCIVYSKGGQLWCTTTKAISEGEELIAFVVDFDSRLQAASQMTLTEGMYPARLLDSIQLLPQQAAMASILPTAIVNKDIFPCKSCGIWYRSERNLQAHLMYYCSGRQREAAPVSEENEDSAHQISSLCPFPQCTKSFSNARALEMHLNSHSGVKMEEFLPPGASLKCTVCSYTADSVINFHQHLFSHLTQAAFRCNHCHFGFQTQRELLQHQELHVPSGKLPRESDMEHSPSATEDSLQPATDLLTRSELPQSQKAMQTKDASSDTELDKCEKKTQLFLTNQRPEIQPTTNKQSFSYTKIKSEPSSPRLASSPVQPNIGPSFPVGPFLSQFSFPQDITMVPQASEILAKMSELVHRRLRHGSSSYPPVIYSPLMPKGATCFECNITFNNLDNYLVHKKHYCSSRWQQMAKSPEFPSVSEKMPEALSPNTGQTSINLNPAAHSADPENPLLQTSCINSSTVLDLIGPNGKGHDKDFSTQTKKLSTSSNNDDKINGKPVDVKNPSVPLVDGESDPNKTTCEACNITFSRHETYMVHKQYYCATRHDPPLKRSASNKVPAMQRTMRTRKRRKMYEMCLPEQEQRPPLVQQRFLDVANLNNPCTSTQEPTEGLGECYHPRCDIFPGIVSKHLETSLTINKCVPVSKCDTTHSSVSCLEMDVPIDLSKKCLSQSERTTTSPKRLLDYHECTVCKISFNKVENYLAHKQNFCPVTAHQRNDLGQLDGKVFPNPESERNSPDVSYERSIIKCEKNGNLKQPSPNGNLFSSHLATLQGLKVFSEAAQLIATKEENRHLFLPQCLYPGAIKKAKGADQLSPYYGIKPSDYISGSLVIHNTDIEQSRNAENESPKGQASSNGCAALKKDSLPLLPKNRGMVIVNGGLKQDERPAANPQQENISQNPQHEDDHKSPSWISENPLAANENVSPGIPSAEEQLSSIAKGVNGSSQAPTSGKYCRLCDIQFNNLSNFITHKKFYCSSHAAEHVK
For B8, which binding [2] is on record?
The binding was “binds”.

B9: ZFPM2 (FOG2) p.M703L variant, Myc-DDK-tagged (protein, UniProt Q8WW38-1 1-1151)
chain: T1 sequence with M703L
How did the binding [2] turn out when B9 was run?
Its binding is “binds”.

B10: Friend of GATA 2 protein (FOG2, ZFPM2), wild-type, Myc-DDK-tagged (protein, UniProt Q8WW38-1 1-1151)
chain: T1 sequence
Which binding [2] does the source give for B10 here?
The binding was “binds”.

B11: ZFPM2 (FOG2) p.E30G variant, Myc-DDK-tagged (protein, UniProt Q8WW38-1 1-1151)
chain: T1 sequence with E30G
How did the binding [2] turn out when B11 was run?
Its binding is “binds”.
